Taken from: PubChem BioAssay AID1671195 (Yale University, 2021)
Screen: 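Knockdowns that increase or decrease uptake of fluorescent LDL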 (primary screen). Cell system: human Huh7 hepatoma cells. Knock-down reagent: siRNA pool against human genes, 18 nM. Time to read-out: about 2 to 2.5 days of knockdown, then 8 h LDL uptake. Conditions: DiI-labelled LDL at 30 µg/ml for 8 h, in lipoprotein-deficient serum medium. Read-out: 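Fluorescent LDL signal imaged in cells, scaled to the plate median, robust z-score for each replicate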. Direction: robust z-score: higher = more LDL uptake after knockdown. Rule for the call: 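a gene counts as active if at least two replicate z-scores exceed ±2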.
Shown is one part, drawn at random, of about 22,000 deposited reagents. About 1,510 of all reagents (6.9%) count as active. 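Active includes knockdowns raising or lowering LDL uptake; positive z-scores mean more uptake, negative mean less.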 The numbers tell different reagents against one gene apart.

no.	gene symbol	reagent no.	robust z-score, replicate 1	robust z-score, replicate 2	robust z-score, replicate 3	Outcome
1	TLE6 (TLE family member 6, subcortical maternal complex member)	1	-0.895	-0.868	-1.09	inactive
2	NPY (neuropeptide Y)	1	-0.379	0.579	0.0901	inactive
3	GJB4 (gap junction protein beta 4)	1	1.11	2.15	1.51	inactive
4	GALNT13 (polypeptide N-acetylgalactosaminyltransferase 13)	1	2.48	2.02	1.63	active
5	CHD5 (chromodomain helicase DNA binding protein 5)	1	0.178	-0.239	-0.218	inactive
6	IDI2-AS1 (IDI2 antisense RNA 1)	1	0.0498	1.09	1.85	inactive
7	TOPORS	1	1.1	1.77	0.361	inactive
8	MINDY4 (MINDY lysine 48 deubiquitinase 4)	1	-0.842	-0.66	-0.00105	inactive
9	GNS (glucosamine (N-acetyl)-6-sulfatase)	1	-1.85	-1.8	-1.85	inactive
10	LINC01139 (long independently transcribed non-coding RNA 1139)	1	-0.159	0.144	-0.141	inactive
11	NPIPB4 (nuclear pore complex interacting protein family member B4)	1	2.51	2.44	2.38	active
12	DENND3 (DENN domain containing 3)	1	0.708	0.545	0.608	inactive
13	NHS (NHS actin remodeling regulator)	1	1.18	1.66	1.46	inactive
14	SLC2A10	1	0.275	0.402	0.387	inactive
15	FLACC1 (flagellum associated containing coiled-coil domains 1)	1	0.892	-0.0908	1	inactive
16	TNFRSF18 (TNF receptor superfamily member 18)	1	1.43	1.92	1.45	inactive
17	XPO1 (exportin 1)	1	0.637	1.95	2.14	active
18	RPL32P36 (ribosomal protein L32 pseudogene 36)	1	-1.77	-1.67	-1.62	inactive
19	LOC388142 (retired record)	1	1.34	1.49	0.622	inactive
20	LILRA5 (leukocyte immunoglobulin like receptor A5)	1	1.18	0.173	0.776	inactive
21	MAP3K12 (mitogen-activated protein kinase kinase kinase 12)	1	-0.284	0.0483	-0.331	inactive
22	BPIFA2 (BPI fold containing family A member 2)	1	0.661	-0.406	0.602	inactive
23	TAF1 (TATA-box binding protein associated factor 1)	1	-1.29	-1.59	-1.29	inactive
24	SLC35E2A	1	3.53	4.66	1.6	active
25	LOC389153 (retired record)	1	0.234	0.395	0.164	inactive
26	GTF2H4 (general transcription factor IIH subunit 4)	1	0.572	0.236	0.303	inactive
27	ENAH (ENAH actin regulator)	1	0.973	1.98	-0.0849	inactive
28	DSEL (dermatan sulfate epimerase like)	1	-1.38	-1.54	-1.21	inactive
29	DAOA (D-amino acid oxidase activator)	1	-0.884	-0.392	-0.507	inactive
30	C21orf91 (chromosome 21 open reading frame 91)	1	1.1	0.934	1.46	inactive
31	RTP5 (receptor transporter protein 5 (putative))	1	-0.0385	-0.106	-0.199	inactive
32	DHRS3 (dehydrogenase/reductase 3)	1	1.25	0.874	0.755	inactive
33	IGFBPL1 (insulin like growth factor binding protein like 1)	1	-0.28	-0.697	-0.682	inactive
34	ADGRA2 (adhesion G protein-coupled receptor A2)	1	0.235	2.5	0.878	inactive
35	CRYBA4 (crystallin beta A4)	1	0.997	0.841	-1.09	inactive
36	LINC01312 (long independently transcribed non-coding RNA 1312)	1	0.72	-0.112	0.693	inactive
37	IGFBP3 (insulin like growth factor binding protein 3)	1	0.49	0.345	0.28	inactive
38	MT1F (metallothionein 1F)	1	-2.09	-2.81	-1.97	active
39	NCOA6 (nuclear receptor coactivator 6)	1	-0.337	-1.44	-0.26	inactive
40	MBD4 (methyl-CpG binding domain 4, DNA glycosylase)	1	1.3	2.45	1.59	inactive
41	ARSI (arylsulfatase family member I)	1	-1.77	-1.98	-1.58	inactive
42	CHDH (choline dehydrogenase)	1	-1.51	-1.73	-1.67	inactive
43	LOC441093 (retired record)	1	0.204	0.146	-0.0445	inactive
44	HIF3A (hypoxia inducible factor 3 subunit alpha)	1	1.17	0.785	-0.369	inactive

Called active, among the entries above:
gene symbol	reagent no.	robust z-score, replicate 1	robust z-score, replicate 2	robust z-score, replicate 3	Outcome
GALNT13 (polypeptide N-acetylgalactosaminyltransferase 13)	1	2.48	2.02	1.63	active
NPIPB4 (nuclear pore complex interacting protein family member B4)	1	2.51	2.44	2.38	active
XPO1 (exportin 1)	1	0.637	1.95	2.14	active
SLC35E2A	1	3.53	4.66	1.6	active
MT1F (metallothionein 1F)	1	-2.09	-2.81	-1.97	active

Further records follow:
no.	gene symbol	reagent no.	robust z-score, replicate 1	robust z-score, replicate 2	robust z-score, replicate 3	Outcome
45	ZMIZ2 (zinc finger MIZ-type containing 2)	1	0.439	0.54	0.617	inactive
46	RASGRF2 (Ras protein specific guanine nucleotide releasing factor 2)	1	-0.608	-0.303	-0.128	inactive
47	HYAL1 (hyaluronidase 1)	1	-0.909	-0.622	-0.773	inactive
48	HIVEP1 (HIVEP zinc finger 1)	1	-0.221	-1.7	-0.79	inactive
49	TAS2R45 (taste 2 receptor member 45)	1	-0.288	-0.153	-0.456	inactive
50	PAPSS2 (3'-phosphoadenosine 5'-phosphosulfate synthase 2)	1	-0.376	-0.76	-1.11	inactive
51	LOC441821 (retired record)	1	-0.681	-0.0892	-0.439	inactive
52	LINC03040 (long independently transcribed non-coding RNA 3040)	1	1.86	1.65	2.19	inactive
53	GRM5 (glutamate metabotropic receptor 5)	1	0.177	-0.774	0.212	inactive
54	RPS27AP17 (RPS27A pseudogene 17)	1	-0.169	0.0808	0.686	inactive
55	IDS (iduronate 2-sulfatase)	1	0.861	0.423	1.22	inactive
56	VARS1 (valyl-tRNA synthetase 1)	1	0.753	1.46	0.593	inactive
57	PEX16 (peroxisomal biogenesis factor 16)	1	0.333	1.63	1.01	inactive
58	UBE2S (ubiquitin conjugating enzyme E2 S)	1	-1.05	-1.17	-2.08	inactive
59	THOP1 (thimet oligopeptidase 1)	1	-0.109	-0.301	0.11	inactive
60	KLRF1 (killer cell lectin like receptor F1)	1	0.989	0.498	1.96	inactive
61	KLHDC4 (kelch domain containing 4)	1	-1.3	-2.06	-1.03	inactive
62	NTAN1 (N-terminal asparagine amidase)	1	2.86	2.48	2.88	active
63	GNAI2P2 (G protein subunit alpha i2 pseudogene 2)	1	-0.144	0.13	0.515	inactive
64	STKLD1 (serine/threonine kinase like domain containing 1)	1	-0.693	-0.25	-0.743	inactive
65	SLC35A1	1	0.786	0.934	0.936	inactive
66	UBR7 (ubiquitin protein ligase E3 component n-recognin 7)	1	0.141	0.325	0.0294	inactive
67	HCP5 (HLA complex P5)	1	1.58	1.76	1.47	inactive
68	SFTPB (surfactant protein B)	1	-0.0437	1.71	-0.798	inactive
69	OR9K2 (olfactory receptor family 9 subfamily K member 2)	1	0.962	1.44	0.47	inactive
70	KLHL21 (kelch like family member 21)	1	0.131	0.391	-1.46	inactive
71	PLGLB2 (plasminogen like B2)	1	3.78	3.09	2.84	active
72	LOC389353 (retired record)	1	-0.481	-0.501	-0.385	inactive
73	TSEN2 (tRNA splicing endonuclease subunit 2)	1	-0.448	-0.115	-0.412	inactive
74	LOC440347 (retired record)	1	-0.578	-0.0984	-0.718	inactive
75	TBC1D27P (TBC1 domain family member 27, pseudogene)	1	-0.507	1.06	0.54	inactive
76	TAP2 (transporter 2, ATP binding cassette subfamily B member)	1	-0.502	-0.118	-0.668	inactive
77	ANK1 (ankyrin 1)	1	-2.02	-2.3	-2.32	active
78	LOC400547 (retired record)	1	0.0209	0.3	0.207	inactive
79	MPIG6B (megakaryocyte and platelet inhibitory receptor G6b)	1	-1.72	-1.86	-1.83	inactive
80	LOC440784 (retired record)	1	0.424	0.387	0.952	inactive
81	LINC00941 (long independently transcribed non-coding RNA 941)	1	-0.592	-0.89	-0.932	inactive
82	EXTL3-AS1 (EXTL3 antisense RNA 1)	1	-0.42	-0.312	-0.158	inactive
83	DPPA4 (developmental pluripotency associated 4)	1	-1.18	-0.139	-2.01	inactive
84	IGSF9B (immunoglobulin superfamily member 9B)	1	1.79	1.9	1.11	inactive
85	IGSF9B (immunoglobulin superfamily member 9B)	2	2.15	0.952	1.56	inactive
86	ATP5PDP3 (ATP synthase peripheral stalk subunit d pseudogene 3)	1	1.32	1.62	1.72	inactive
87	RPL4 (ribosomal protein L4)	1	-0.746	0.00224	-0.948	inactive
